Patent publication US7771761B2, “Cheese with calcium lactate crystal inhibitor” (Regents of The University of Minnesota, priority 2005, dated 2010)
Where a name gives a salt, the structure may show the parent alone. Some compounds share one wording; it may come from a single statement.

Test: Solubility model Example 4: visual inspection for crystals on sand paper in calcium lactate solution
Type: physicochemical
Conditions: no visible crystals and minimal reduction in calcium and lactate content after 14 days at 7° C.
Procedure: Demineralized water (60° C.) was then added to the flask to obtain a final weight of 100 g and the flask was stirred to dissolve the calcium lactate powder. Subsequently a piece of 1.5×3 cm sand paper was added to the flask to provide a nucleation site for calcium lactate crystal formation and the flask was sealed with a rubber stopper.
After preparation a sample of each solution was collected.
Subsequently all solutions were stored at 7° C. for 14 days. After 14 days the flasks were visually inspected for the presence of crystals on the sand paper and the solutions were filtered at 7° C. through filter paper (Whatman 4; Whatman International Ltd., Maidstone, England).
In the case of `O=C([O-])[C@H](O)[C@@H](O)[C@H](O)[C@H](O)CO.[Na+]` [Sodium gluconate, sodium gluconate], the “qualification as CLC inhibitor in the model system” value (“qualification as CLC inhibitor” below) is reported as “qualify as CLC inhibitors”.
In the case of `O=C(O)[C@H](O)[C@@H](O)[C@H](O[C@@H]1O[C@H](CO)[C@H](O)[C@H](O)[C@H]1O)[C@H](O)CO` [Sodium lactobionate, lactobionic acid], the “qualification as CLC inhibitor” value is reported as “qualify as CLC inhibitors”.
With `O=C(O)CC(O)C(=O)O` (stereo not drawn) [Sodium malate, malic acid disodium salt] the “qualification as CLC inhibitor” value was “qualify as CLC inhibitors”.
